PubChem BioAssay AID504764 | Drosophila RNAi Screening Center – 2011
Aim: 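Genes whose knock-down alters Notch-dependent transcription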 (primary screen). Cell system: Drosophila Kc167 cells. Reagent: long dsRNA against Drosophila genes. Duration: about 5 days (4 days dsRNA, then 24 h after transfection). Conditions: transfection of constitutively active membrane-tethered Notch lacking the extracellular domain, read 24 h later. Read-out: 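Firefly luciferase from an E(spl)m3 reporter with active Notch, plus control-promoter and uninduced reporter wells for normalisation; unnormalised counts, duplicate wells a and b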. Scale: induced reporter light, run 1, well a and induced reporter light, run 1, well b: higher = more light from the Notch target reporter with active Notch; control promoter light, run 1, well a and control promoter light, run 1, well b: higher = more light from the viral control promoter (cell number, transfection, viability); uninduced reporter light, run 1, well a: higher = more light from the Notch target reporter without active Notch. Hit rule: 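Wells with low control signal or poorly matching duplicates excluded; duplicates averaged; per source plate, z beyond ±2 for induced/control log2 ratio or beyond ±1.8 for induced/uninduced marks a hit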. Calls: active = modifier hit (raised or lowered Notch signal); inactive = not a hit.
In all, the deposit lists about 22,000 reagents; shown is a random part of those that have a named target and a result. Over the whole deposit, 403 (1.9%) got an active call. 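Unnormalised raw counts per well; ratio z-scores behind the hit calls and whether each hit raises or lowers signal are not deposited.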 The numbers tell different reagents against one gene apart. Reagent sequences are not shown. Not stated in the record: the amount of reagent.

CG9646 — induced reporter light, run 1, well a = 77015; induced reporter light, run 1, well b = 1.08e5; control promoter light, run 1, well a = 1.21e5; control promoter light, run 1, well b = 1.30e5; uninduced reporter light, run 1, well a = 5190; Outcome = inactive
Taf7 — induced reporter light, run 1, well a = 74310; induced reporter light, run 1, well b = 76655; control promoter light, run 1, well a = 53665; control promoter light, run 1, well b = 50345; uninduced reporter light, run 1, well a = 5155; Outcome = inactive
CG9458 — induced reporter light, run 1, well a = 94215; induced reporter light, run 1, well b = 83895; control promoter light, run 1, well a = 93045; control promoter light, run 1, well b = 76260; uninduced reporter light, run 1, well a = 7170; Outcome = inactive
CG10669 — induced reporter light, run 1, well a = 2.07e5; induced reporter light, run 1, well b = 1.64e5; control promoter light, run 1, well a = 2.09e5; control promoter light, run 1, well b = 1.89e5; uninduced reporter light, run 1, well a = 13785; Outcome = inactive
CG13086 — induced reporter light, run 1, well a = 72275; induced reporter light, run 1, well b = 72870; control promoter light, run 1, well a = 88140; control promoter light, run 1, well b = 1.20e5; uninduced reporter light, run 1, well a = 4955; Outcome = inactive
CG32075 — induced reporter light, run 1, well a = 1.61e5; induced reporter light, run 1, well b = 1.46e5; control promoter light, run 1, well a = 1.55e5; control promoter light, run 1, well b = 2.16e5; uninduced reporter light, run 1, well a = 8890; Outcome = inactive
Schip1 — induced reporter light, run 1, well a = 1.40e5; induced reporter light, run 1, well b = 1.79e5; control promoter light, run 1, well a = 99445; control promoter light, run 1, well b = 1.35e5; uninduced reporter light, run 1, well a = 18135; Outcome = inactive
CG5327 — induced reporter light, run 1, well a = 1.05e5; induced reporter light, run 1, well b = 96445; control promoter light, run 1, well a = 1.41e5; control promoter light, run 1, well b = 1.41e5; uninduced reporter light, run 1, well a = 9230; Outcome = inactive
Clp — induced reporter light, run 1, well a = 1.18e5; induced reporter light, run 1, well b = 84050; control promoter light, run 1, well a = 65225; control promoter light, run 1, well b = 38305; uninduced reporter light, run 1, well a = 6045; Outcome = inactive
CG30356 — induced reporter light, run 1, well a = 45540; induced reporter light, run 1, well b = 55285; control promoter light, run 1, well a = 72110; control promoter light, run 1, well b = 92910; uninduced reporter light, run 1, well a = 2930; Outcome = inactive

Part of the list above, reformatted.
gene,reagent,"induced reporter light, run 1, well a","induced reporter light, run 1, well b","control promoter light, run 1, well a","control promoter light, run 1, well b","uninduced reporter light, run 1, well a",Outcome
Clp,1,1.18e5,84050,65225,38305,6045,inactive
CG30356,1,45540,55285,72110,92910,2930,inactive

The listing continues:
elm — induced reporter light, run 1, well a = 1.24e5; induced reporter light, run 1, well b = 1.15e5; control promoter light, run 1, well a = 83910; control promoter light, run 1, well b = 76945; uninduced reporter light, run 1, well a = 7805; Outcome = inactive
amon #1 — induced reporter light, run 1, well a = 1.75e5; induced reporter light, run 1, well b = 1.82e5; control promoter light, run 1, well a = 1.67e5; control promoter light, run 1, well b = 2.59e5; uninduced reporter light, run 1, well a = 15845; Outcome = inactive
amon #2 — induced reporter light, run 1, well a = 1.38e5; induced reporter light, run 1, well b = 1.37e5; control promoter light, run 1, well a = 1.51e5; control promoter light, run 1, well b = 1.61e5; uninduced reporter light, run 1, well a = 12070; Outcome = inactive
Cog8 — induced reporter light, run 1, well a = 2.20e5; induced reporter light, run 1, well b = 2.01e5; control promoter light, run 1, well a = 1.95e5; control promoter light, run 1, well b = 2.27e5; uninduced reporter light, run 1, well a = 15670; Outcome = inactive
CG7367 — induced reporter light, run 1, well a = 1.41e5; induced reporter light, run 1, well b = 1.99e5; control promoter light, run 1, well a = 97650; control promoter light, run 1, well b = 1.13e5; uninduced reporter light, run 1, well a = 22650; Outcome = inactive
Ctu2 — induced reporter light, run 1, well a = 2.00e5; induced reporter light, run 1, well b = 1.98e5; control promoter light, run 1, well a = 1.73e5; control promoter light, run 1, well b = 1.92e5; uninduced reporter light, run 1, well a = 14810; Outcome = inactive
dcma #1 — induced reporter light, run 1, well a = 1.24e5; induced reporter light, run 1, well b = 1.23e5; control promoter light, run 1, well a = 1.57e5; control promoter light, run 1, well b = 1.63e5; uninduced reporter light, run 1, well a = 9865; Outcome = inactive
dcma #2 — induced reporter light, run 1, well a = 45160; induced reporter light, run 1, well b = 41685; control promoter light, run 1, well a = 45825; control promoter light, run 1, well b = 47050; uninduced reporter light, run 1, well a = 2188; Outcome = inactive
